Results deposited as PubChem BioAssay AID743448 (Peter MacCallum Cancer Centre, 2014)

- Purpose: 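Test whether knock-downs sensitising to vorinostat hold across several colon lines but not etoposide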 (follow-up of hits)
- System: four human colon cancer cell lines: HCT116-VR (vorinostat-resistant HCT116 derivative), SW480, SW620 and LIM1215
- Reagents: siRNA pool against human genes, 40 nM siRNA pool
- Timing: drug added two days after transfection, read one day later
- Treatment: vorinostat 2.5 µM on one half of each plate, etoposide 5 µM on the other half
- Cell line and drug panel: SW620 cells with vorinostat
- Read-out: 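Caspase 3/7 activity by luminescence and live-cell viability by fluorescence, each given as a ratio to mock-transfected wells and as a robust z-score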
- Reading the numbers: caspase ratio to mock: higher = more caspase activity than mock; viability ratio to mock: higher = more live cells than mock
- Hit rule: 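Hit means caspase ratio to mock at least 1.6, or viability ratio to mock at most 0.75; wells with strong death in the absence of drug get no call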
- Calls: active = caspase or viability hit in this panel; inactive = no change, or unhealthy well
This is an unselected part of the 106 reagents, under one of the conditions tested. 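Calls are per line and drug panel including etoposide, not vorinostat-specific; gene picks needed hits in two or more extra lines with vorinostat versus etoposide.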 Unmarked entries are inactive. Not all columns of the deposit are shown. No sequences are given here.

no.	target gene	caspase ratio to mock	viability ratio to mock
1	THAP1	1.39	0.98
2	NUP205	1.16 (active)	0.67
3	RNF186	0.56	0.82
4	NUP93	0.98	0.92
5	DDX19B	1.6 (active)	1.19
6	LAD1	1.77 (active)	1.02
7	SERTAD1	1.27	0.85
8	TBC1D20	1.62 (active)	0.73
9	NPC1L1	1.41	0.96
10	MTF2	1.29	0.92

Copied from the list:
RNF186, caspase ratio to mock: 0.56
For “caspase ratio to mock”, NUP205 has 1.16 (active)
Under “viability ratio to mock”, NUP93 is entered as 0.92

Continued.
no.	target gene	caspase ratio to mock	viability ratio to mock
11	HSPA6	1.4	0.98
12	OR2W5	1.05	0.99
13	MSANTD1	1.58	0.92
14	CCNK	1.6 (active)	0.94
15	OR6T1	1.2	0.88
16	EIF1AX	1.17	0.91
17	DNTTIP2	0.98	0.99
18	LBHD1	0.94	0.92
19	EIF3L	1.46	1.06
20	MRPL19	1.4	1.02
